In paper PMC3656097:
Results are given in words; binding and its absence hold for the method and conditions named. Binding seen in cells or lysates may run through a third protein. Some entries that bind do so weakly or less than the wild type.

Sequences of proteins named here, by UniProt entry; tags and fusion partners are left off. Residues count along the entry.
UniProt Q8BG39: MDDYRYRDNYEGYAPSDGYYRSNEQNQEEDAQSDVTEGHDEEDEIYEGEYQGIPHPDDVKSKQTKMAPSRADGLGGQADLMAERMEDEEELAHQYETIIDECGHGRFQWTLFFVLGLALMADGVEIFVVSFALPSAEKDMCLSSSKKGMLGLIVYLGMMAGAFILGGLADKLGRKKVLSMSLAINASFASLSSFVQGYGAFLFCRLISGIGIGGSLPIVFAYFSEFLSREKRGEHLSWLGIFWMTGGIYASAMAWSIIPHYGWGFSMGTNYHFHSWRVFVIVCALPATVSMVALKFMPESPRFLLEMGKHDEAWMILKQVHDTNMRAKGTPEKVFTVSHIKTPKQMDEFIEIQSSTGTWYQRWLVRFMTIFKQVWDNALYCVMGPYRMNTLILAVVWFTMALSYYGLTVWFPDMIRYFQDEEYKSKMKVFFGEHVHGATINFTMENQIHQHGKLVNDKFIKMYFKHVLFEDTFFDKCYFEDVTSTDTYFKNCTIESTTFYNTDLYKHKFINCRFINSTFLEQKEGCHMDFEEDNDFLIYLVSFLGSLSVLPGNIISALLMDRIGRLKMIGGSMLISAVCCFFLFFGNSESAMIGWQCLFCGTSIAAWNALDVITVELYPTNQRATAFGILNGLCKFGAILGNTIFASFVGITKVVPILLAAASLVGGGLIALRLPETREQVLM
UniProt Q61851, residues 21-801: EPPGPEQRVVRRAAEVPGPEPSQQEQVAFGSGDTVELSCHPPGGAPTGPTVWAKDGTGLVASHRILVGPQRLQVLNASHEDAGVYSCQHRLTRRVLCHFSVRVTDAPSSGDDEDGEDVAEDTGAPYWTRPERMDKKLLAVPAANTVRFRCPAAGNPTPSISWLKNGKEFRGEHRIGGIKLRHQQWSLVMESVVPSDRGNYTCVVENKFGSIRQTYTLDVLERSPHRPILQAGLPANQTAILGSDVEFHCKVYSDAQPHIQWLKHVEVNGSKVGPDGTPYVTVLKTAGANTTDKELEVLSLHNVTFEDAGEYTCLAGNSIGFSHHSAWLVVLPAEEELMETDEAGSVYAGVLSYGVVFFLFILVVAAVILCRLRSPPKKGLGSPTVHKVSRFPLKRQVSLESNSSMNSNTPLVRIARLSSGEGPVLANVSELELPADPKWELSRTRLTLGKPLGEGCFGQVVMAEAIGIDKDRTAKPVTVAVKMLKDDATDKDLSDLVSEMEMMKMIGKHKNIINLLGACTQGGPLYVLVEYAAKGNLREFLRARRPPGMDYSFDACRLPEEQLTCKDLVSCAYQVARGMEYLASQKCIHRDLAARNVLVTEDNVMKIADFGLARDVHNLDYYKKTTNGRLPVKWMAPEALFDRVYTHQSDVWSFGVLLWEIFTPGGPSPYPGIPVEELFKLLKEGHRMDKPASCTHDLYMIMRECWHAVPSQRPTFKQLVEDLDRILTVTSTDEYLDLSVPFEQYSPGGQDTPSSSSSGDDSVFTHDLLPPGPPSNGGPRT

Experiments:
[1] = target: SV2B of Neuro-2a cells (mouse (endogenous in Neuro-2a)) (UniProt Q8BG39); assay: co-IP
[2] = target: FGFR3 of Neuro-2a cells (mouse (endogenous in Neuro-2a)) (UniProt Q61851); assay: co-IP

| Substance | binding [1] | binding [2] |
| --- | --- | --- |
| FGFR3 of Neuro-2a cells (from UniProt Q61851 21-801) (receptor) | binds |  |
| SV2B of Neuro-2a cells (from UniProt Q8BG39 1-683) |  | binds |
